Experiment [1] addresses SH3-SH2-KD Abl (Abl_(64–510)) (UniProt P00519). Briefly: ITC; competitive replacement ITC: N-Myr peptide as the weak-binding ligand replaced by asciminib; 50 mM Tris-HCl, 500 mM NaCl, 1 mM TCEP, pH 8.0, 5% DMSO, 25 °C; both purified. Background: In ITC the heat of successive injections is recorded.
Experiment [2] deals with AblKD (Abl kinase domain, residues 229 to 510) (UniProt P00519). Described as above.

Protein sequences, listed by entry. Tags and fused reporters are not part of them. Lines headed by an entry give the natural chain unless they say otherwise; changes in a name come on top.
UniProt P00519: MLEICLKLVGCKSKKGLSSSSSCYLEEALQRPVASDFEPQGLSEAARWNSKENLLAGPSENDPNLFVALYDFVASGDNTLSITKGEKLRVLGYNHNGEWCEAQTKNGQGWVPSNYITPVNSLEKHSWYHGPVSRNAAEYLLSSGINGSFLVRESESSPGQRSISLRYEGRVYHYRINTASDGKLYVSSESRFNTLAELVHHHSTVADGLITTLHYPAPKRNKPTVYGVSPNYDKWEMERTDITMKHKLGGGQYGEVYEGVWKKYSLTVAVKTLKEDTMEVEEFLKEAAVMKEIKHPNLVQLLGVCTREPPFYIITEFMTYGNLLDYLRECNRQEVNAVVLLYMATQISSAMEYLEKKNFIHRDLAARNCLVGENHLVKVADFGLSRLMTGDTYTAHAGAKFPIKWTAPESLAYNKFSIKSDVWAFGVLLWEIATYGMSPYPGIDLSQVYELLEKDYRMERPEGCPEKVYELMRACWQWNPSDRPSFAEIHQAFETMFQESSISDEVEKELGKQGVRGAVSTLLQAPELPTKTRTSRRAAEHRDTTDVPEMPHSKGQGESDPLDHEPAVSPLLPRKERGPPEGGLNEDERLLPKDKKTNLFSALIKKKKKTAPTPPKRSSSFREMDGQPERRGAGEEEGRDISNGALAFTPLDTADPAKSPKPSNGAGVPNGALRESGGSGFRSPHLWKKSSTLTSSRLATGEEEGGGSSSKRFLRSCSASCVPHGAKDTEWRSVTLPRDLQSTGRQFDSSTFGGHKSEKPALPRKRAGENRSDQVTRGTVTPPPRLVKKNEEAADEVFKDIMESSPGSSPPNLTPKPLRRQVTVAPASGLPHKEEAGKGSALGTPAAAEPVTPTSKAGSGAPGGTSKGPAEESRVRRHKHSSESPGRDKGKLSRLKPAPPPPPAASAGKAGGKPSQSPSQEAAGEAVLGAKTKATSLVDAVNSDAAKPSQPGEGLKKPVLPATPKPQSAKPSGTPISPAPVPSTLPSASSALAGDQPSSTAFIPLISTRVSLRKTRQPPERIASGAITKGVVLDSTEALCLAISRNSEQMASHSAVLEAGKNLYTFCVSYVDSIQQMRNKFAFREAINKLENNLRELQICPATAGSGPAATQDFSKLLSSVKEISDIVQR

No constants are given. Whether binding was seen depends on the method and setting. A result given as binding can be weak or reduced; the word gives no strength.

B1: N-Myr peptide (Myr-…) (peptide)
peptide: GQQPGKVLGDQR
modifications: myristoyl (Myr-) on the N-terminus
Regarding B1, the binding entry in experiment [1] and in experiment [2] was “binds weakly” each time.

(Values after publication PMC10450579, “A biophysical framework for double-drugging kinases” (Proceedings of the National Academy of Sciences of the …, 2023).)
